Source: paper doi:10.1101/281857

By UniProt entry, the sequences of proteins in these tests, tags left out.
UniProt Q15397: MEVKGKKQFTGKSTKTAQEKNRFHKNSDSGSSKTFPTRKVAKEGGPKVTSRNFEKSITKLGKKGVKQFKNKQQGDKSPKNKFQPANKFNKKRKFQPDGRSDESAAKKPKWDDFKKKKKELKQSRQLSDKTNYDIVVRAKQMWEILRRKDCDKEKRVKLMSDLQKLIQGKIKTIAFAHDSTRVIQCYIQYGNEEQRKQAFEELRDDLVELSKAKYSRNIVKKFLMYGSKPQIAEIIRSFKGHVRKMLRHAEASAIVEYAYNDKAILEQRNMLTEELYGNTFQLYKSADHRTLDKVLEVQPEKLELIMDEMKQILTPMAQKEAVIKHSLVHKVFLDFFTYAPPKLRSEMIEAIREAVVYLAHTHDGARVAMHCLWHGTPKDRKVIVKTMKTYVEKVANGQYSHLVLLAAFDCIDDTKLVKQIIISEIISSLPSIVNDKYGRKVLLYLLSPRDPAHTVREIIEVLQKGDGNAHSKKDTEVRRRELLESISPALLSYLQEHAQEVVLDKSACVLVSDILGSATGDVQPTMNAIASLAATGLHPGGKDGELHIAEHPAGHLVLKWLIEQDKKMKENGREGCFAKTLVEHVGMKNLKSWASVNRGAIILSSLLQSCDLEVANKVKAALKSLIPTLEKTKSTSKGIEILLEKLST
UniProt P06748: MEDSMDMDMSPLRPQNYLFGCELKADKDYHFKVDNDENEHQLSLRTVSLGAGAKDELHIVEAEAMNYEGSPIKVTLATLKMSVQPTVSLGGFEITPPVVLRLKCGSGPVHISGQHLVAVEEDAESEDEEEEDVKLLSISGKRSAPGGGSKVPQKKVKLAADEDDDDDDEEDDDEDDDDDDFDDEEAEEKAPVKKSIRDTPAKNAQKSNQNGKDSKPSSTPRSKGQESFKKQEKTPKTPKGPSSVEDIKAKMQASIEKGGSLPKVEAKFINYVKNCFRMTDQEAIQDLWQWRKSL

Biological target: Puf-A (bait of the immunoprecipitation for mass spectrometry) (human) (UniProt Q15397)
Assay: affinity purification with mass spectrometry

“endogenous NPM1 (from UniProt P06748 1-294)” was tested, and the binding was “binds”.

Results are given in words; binding and its absence hold for the method and conditions named. In cells and extracts the contact can be indirect. These calls come from enrichment with a bait or labelling near it, and not all partners need be listed.
